Some of the results follow.
What was measured:
Experiment in all cases: log2 fold change, soluble protein after heating vs DMSO (PISA); higher = thermal stabilisation; K562 lysate, 10 uM; active = over 0.2 and 3.5 SD of the protein, either way, in both replicates (recomputed)
[1] = compound: Cc1cn(-c2cc(NC(=O)c3ccc(C)c(Nc4nccc(-c5cccnc5)n4)c3)cc(C(F)(F)F)c2)cn1 [nilotinib]
Summary of the method: (§1)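 Thermal stability, expressed as log-two fold change relative to solvent controls, is given from duplicates. Crude K562 extract in PBS pH 7.4 with 1 mM MgCl2, at 1 mg/mL protein, was treated with 10 μM compound for 30 min and heated in aliquots for 3 min across 48°C-58°C. After pooling, adjustment to 0.5% NP-40 at 4°C and centrifugation at 21,000xg for 90 min, supernatant protein was measured by TMTpro 16plex LC-MS/MS with channel sums equalised.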

The chains behind the UniProt entries cited, without tags or fusion partners. Where a name states a change or a piece, a line headed by the entry shows the natural chain unless it says otherwise.
UniProt P31949: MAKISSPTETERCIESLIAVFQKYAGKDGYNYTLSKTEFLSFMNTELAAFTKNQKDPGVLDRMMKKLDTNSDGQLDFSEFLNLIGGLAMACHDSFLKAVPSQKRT
UniProt Q96IZ7: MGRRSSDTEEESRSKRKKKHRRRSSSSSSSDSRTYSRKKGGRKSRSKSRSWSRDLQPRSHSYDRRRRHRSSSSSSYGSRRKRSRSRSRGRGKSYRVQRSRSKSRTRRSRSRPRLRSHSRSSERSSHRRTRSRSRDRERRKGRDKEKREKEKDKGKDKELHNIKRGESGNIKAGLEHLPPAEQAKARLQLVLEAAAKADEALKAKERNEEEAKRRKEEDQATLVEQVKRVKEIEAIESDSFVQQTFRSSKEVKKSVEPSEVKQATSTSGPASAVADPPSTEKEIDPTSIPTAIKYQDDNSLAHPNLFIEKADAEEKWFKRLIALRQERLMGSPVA
UniProt Q92766: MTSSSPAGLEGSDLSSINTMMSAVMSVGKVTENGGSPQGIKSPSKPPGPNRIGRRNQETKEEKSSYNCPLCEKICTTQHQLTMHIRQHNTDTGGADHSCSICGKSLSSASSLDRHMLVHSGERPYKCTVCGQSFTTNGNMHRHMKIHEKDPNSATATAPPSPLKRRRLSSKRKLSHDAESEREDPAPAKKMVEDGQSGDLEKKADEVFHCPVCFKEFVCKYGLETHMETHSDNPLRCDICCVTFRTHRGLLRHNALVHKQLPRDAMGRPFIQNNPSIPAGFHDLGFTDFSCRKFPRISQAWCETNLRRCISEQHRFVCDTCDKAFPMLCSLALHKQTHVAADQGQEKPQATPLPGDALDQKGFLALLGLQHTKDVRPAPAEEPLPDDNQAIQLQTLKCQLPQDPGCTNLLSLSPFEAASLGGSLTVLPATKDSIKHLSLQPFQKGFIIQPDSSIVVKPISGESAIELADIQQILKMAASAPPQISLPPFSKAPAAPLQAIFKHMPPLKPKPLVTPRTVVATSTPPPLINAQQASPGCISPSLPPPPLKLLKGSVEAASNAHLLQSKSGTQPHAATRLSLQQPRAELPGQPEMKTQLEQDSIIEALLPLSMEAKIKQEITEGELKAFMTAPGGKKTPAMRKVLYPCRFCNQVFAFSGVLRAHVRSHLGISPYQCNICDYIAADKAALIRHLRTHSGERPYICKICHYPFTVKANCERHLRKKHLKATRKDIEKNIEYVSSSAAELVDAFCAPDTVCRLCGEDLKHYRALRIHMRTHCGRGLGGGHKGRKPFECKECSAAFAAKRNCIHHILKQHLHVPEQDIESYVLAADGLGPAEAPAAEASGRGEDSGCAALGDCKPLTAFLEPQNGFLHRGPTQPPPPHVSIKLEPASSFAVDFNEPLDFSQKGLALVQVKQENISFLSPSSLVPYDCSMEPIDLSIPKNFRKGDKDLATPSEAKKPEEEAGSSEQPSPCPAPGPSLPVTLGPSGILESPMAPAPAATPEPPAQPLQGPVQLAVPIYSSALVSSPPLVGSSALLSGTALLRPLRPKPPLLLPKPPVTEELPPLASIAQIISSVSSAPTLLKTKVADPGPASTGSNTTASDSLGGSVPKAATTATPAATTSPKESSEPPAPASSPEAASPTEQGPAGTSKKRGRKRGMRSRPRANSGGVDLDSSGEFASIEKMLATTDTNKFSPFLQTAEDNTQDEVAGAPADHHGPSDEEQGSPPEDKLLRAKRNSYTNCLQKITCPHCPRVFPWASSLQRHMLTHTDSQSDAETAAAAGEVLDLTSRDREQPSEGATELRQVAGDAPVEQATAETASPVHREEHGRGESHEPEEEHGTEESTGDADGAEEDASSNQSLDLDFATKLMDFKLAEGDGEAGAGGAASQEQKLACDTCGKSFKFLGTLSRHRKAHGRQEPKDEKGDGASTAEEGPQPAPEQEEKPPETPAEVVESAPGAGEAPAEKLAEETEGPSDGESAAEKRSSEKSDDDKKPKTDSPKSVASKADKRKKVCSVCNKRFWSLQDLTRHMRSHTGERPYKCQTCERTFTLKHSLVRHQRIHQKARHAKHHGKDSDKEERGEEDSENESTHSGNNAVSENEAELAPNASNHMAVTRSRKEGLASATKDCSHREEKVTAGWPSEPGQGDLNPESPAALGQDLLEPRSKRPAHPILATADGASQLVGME
UniProt Q96DX4: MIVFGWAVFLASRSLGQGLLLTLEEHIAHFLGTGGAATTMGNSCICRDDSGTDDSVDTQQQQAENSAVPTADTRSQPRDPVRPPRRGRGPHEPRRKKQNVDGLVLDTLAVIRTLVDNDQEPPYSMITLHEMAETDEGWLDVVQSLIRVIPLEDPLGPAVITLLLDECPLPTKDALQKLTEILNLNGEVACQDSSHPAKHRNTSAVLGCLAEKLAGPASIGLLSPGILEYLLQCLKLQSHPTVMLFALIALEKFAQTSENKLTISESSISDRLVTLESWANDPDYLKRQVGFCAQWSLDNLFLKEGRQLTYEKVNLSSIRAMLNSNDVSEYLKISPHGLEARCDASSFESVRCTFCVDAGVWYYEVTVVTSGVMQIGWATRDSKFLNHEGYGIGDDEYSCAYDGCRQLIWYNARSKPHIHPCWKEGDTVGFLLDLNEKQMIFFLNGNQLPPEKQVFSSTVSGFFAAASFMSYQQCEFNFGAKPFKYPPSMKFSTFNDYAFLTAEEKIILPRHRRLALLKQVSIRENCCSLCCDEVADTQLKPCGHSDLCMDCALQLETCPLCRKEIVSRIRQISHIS
UniProt O95197: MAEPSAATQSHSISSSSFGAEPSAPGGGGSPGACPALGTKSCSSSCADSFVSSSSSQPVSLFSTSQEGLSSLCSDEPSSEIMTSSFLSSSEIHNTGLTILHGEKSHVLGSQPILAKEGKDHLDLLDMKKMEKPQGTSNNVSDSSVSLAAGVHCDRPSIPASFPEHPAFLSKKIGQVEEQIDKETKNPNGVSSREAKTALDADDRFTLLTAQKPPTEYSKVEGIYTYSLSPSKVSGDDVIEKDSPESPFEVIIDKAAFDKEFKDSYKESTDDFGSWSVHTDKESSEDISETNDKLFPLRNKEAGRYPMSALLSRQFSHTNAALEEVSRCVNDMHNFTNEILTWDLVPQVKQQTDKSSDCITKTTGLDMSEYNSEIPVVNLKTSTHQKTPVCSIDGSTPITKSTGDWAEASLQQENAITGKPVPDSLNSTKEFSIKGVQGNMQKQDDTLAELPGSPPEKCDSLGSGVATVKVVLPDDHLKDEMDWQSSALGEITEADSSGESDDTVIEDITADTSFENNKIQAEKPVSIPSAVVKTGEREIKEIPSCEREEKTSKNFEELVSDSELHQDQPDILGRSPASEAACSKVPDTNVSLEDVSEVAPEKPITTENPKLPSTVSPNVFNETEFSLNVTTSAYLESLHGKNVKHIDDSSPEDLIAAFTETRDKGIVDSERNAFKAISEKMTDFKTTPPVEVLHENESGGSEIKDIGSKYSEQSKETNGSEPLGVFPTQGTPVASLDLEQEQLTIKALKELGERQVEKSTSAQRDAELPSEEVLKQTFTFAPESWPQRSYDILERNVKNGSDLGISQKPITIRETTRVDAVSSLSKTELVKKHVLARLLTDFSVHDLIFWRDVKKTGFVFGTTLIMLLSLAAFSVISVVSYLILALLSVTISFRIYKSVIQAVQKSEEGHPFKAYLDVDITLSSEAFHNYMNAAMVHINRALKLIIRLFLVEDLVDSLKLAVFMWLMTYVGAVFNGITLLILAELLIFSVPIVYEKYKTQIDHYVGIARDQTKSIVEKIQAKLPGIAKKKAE
UniProt P23921: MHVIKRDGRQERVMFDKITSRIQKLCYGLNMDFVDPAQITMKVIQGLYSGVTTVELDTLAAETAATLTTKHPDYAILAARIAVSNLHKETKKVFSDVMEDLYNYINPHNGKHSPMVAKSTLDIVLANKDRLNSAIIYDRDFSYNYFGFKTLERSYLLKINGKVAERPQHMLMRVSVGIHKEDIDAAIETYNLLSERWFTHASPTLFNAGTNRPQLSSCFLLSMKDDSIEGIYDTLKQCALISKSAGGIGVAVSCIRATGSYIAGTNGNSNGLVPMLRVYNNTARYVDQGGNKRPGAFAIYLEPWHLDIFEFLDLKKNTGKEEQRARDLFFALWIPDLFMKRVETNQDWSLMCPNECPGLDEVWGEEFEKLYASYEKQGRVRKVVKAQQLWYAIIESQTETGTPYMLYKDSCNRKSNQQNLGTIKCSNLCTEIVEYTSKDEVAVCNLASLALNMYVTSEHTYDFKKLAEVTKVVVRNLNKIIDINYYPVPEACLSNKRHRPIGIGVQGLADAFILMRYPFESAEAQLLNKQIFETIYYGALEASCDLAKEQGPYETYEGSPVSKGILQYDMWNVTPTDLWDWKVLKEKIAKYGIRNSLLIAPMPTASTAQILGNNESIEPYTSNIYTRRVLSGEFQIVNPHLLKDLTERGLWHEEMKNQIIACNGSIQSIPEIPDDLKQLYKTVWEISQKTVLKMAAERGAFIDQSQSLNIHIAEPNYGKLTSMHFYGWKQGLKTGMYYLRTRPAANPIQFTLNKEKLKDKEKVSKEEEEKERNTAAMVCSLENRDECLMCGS
UniProt Q8IZ73: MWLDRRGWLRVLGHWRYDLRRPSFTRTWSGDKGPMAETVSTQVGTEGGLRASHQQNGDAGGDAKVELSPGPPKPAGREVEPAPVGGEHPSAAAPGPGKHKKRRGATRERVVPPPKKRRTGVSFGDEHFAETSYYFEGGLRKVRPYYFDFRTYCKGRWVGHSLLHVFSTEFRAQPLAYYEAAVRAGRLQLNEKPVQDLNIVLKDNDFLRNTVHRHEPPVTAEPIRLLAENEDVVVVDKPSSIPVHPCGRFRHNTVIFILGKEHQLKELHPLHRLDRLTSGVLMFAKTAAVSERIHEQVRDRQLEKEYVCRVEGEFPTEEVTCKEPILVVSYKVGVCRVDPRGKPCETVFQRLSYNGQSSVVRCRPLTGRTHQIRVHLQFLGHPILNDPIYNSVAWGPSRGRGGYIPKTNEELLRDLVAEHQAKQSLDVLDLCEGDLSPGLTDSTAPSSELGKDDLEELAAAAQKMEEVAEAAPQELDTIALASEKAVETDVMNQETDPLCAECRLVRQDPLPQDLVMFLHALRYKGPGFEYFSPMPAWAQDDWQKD
UniProt Q8N5L8: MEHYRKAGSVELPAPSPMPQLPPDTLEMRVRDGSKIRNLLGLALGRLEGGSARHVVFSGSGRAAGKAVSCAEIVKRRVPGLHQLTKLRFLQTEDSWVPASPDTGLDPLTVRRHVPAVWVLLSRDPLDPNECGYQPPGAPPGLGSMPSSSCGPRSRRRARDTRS
UniProt Q9H446: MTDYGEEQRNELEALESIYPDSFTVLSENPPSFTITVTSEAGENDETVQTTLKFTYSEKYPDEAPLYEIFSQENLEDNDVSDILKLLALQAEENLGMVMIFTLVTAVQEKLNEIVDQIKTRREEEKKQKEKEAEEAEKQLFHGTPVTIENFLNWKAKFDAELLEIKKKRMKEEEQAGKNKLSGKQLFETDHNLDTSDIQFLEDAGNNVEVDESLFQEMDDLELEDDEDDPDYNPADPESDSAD
UniProt Q9H633: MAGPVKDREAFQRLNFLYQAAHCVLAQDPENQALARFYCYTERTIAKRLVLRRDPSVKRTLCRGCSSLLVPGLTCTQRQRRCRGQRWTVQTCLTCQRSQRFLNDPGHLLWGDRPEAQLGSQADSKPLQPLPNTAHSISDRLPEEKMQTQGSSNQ
UniProt O75818: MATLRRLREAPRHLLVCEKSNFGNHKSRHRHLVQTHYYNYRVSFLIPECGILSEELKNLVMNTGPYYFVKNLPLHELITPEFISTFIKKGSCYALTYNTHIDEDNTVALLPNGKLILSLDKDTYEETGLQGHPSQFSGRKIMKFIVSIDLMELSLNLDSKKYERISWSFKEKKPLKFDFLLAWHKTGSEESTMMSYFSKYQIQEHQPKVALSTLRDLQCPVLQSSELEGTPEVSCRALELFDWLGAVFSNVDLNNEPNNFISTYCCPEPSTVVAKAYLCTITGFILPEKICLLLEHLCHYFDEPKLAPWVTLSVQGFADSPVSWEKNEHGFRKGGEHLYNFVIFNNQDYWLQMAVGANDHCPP
UniProt Q01196, whole entry, looked up: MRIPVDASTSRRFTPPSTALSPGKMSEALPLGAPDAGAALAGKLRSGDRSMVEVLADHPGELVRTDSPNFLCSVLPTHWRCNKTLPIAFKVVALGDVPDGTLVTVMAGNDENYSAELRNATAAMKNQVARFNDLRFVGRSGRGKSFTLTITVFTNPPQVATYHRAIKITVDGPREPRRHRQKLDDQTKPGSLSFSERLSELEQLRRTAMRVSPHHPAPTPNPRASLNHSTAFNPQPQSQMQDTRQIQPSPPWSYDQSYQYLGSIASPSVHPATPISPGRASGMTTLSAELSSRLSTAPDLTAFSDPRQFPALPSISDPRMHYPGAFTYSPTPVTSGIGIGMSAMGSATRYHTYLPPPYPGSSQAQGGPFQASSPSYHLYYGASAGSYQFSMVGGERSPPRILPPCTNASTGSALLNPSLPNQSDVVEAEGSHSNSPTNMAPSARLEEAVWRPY
UniProt Q99584: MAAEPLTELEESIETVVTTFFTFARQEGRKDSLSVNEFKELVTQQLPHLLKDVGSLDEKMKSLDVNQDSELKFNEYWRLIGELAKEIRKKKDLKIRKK

[2] = compound: Cc1nc(Nc2n[nH]c3c2CN(C(=O)N[C@H](CN(C)C)c2ccccc2)C3(C)C)c2sccc2n1
Summary of the method: as §1

[3] = compound: Cc1nc(Nc2ncc(C(=O)Nc3c(C)cccc3Cl)s2)cc(N2CCN(CCO)CC2)n1 [dasatinib]
Summary of the method: as §1

[4] = compound: Cc1ncc(-c2ccnc(Nc3ccc(S(C)(=O)=O)cc3)n2)n1C(C)C
Summary of the method: as §1

[5] = compound: Cn1cc(-c2ccc3c(c2)CCN3C(=O)Cc2cccc(C(F)(F)F)c2)c2c(N)ncnc21
Summary of the method: as §1

[6] = compound: Cn1cc(CNCC2CCN(c3ncc(C(=O)NO)cn3)CC2)c2ccccc21 [quisinostat]
Summary of the method: as §1

[7] = compound: Cn1cncc1[C@@](N)(c1ccc(Cl)cc1)c1ccc2c(c1)c(-c1cccc(Cl)c1)cc(=O)n2C [tipifarnib]
Summary of the method: as §1

[8] = compound: NC(=O)Nc1cc(-c2cccc(F)c2)sc1C(=O)N[C@H]1CCCNC1
Summary of the method: as §1

[9] = compound: NC(=O)c1cnc(N[C@@H]2CCCC[C@@H]2N)nc1Nc1cccc(-n2nccn2)c1
Summary of the method: as §1

[10] = compound: NC1(c2ccc(-c3nc4ccn5c(=O)[nH]nc5c4cc3-c3ccccc3)cc2)CCC1
Summary of the method: as §1

Target | log2 fold change [1] | log2 fold change [2] | log2 fold change [3] | log2 fold change [4] | log2 fold change [5] | log2 fold change [6] | log2 fold change [7] | log2 fold change [8] | log2 fold change [9] | log2 fold change [10]
RRP1 (UniProt P56182) | inactive: -0.016 | inactive: 0.033 | inactive: -0.087 | inactive: -0.021 | inactive: -0.041 | inactive: 0.02 | inactive: -0.017 | inactive: -0.01 | inactive: -0.023 | inactive: 0.001
S100A11 (UniProt P31949) | inactive: 0.067 | inactive: 0.007 | inactive: 0.013 | inactive: 0.056 | inactive: -0.02 | inactive: 0.05 | inactive: 0.041 | inactive: -0.033 | inactive: 0 | inactive: -0.006
RSRC1 (UniProt Q96IZ7) | inactive: -0.014 | inactive: -0.06 | inactive: 0.011 | inactive: 0.031 | inactive: 0.006 | inactive: 0.03 | inactive: 0.024 | inactive: -0.045 | inactive: -0.007 | inactive: 0.043
RPS18 (UniProt P62269) | inactive: 0.004 | inactive: -0.02 | inactive: -0.009 | inactive: -0.039 | inactive: -0.018 | inactive: 0 | inactive: 0.031 | inactive: -0.018 | inactive: 0.014 | inactive: -0.006
RPS11 (UniProt P62280) | inactive: -0.01 | inactive: -0.003 | inactive: 0.033 | inactive: -0.02 | inactive: 0.012 | inactive: 0.053 | inactive: 0.017 | inactive: -0.05 | inactive: -0.023 | inactive: -0.008
RPL37 (UniProt P61927) | inactive: -0.004 | inactive: 0.014 | inactive: -0.03 | inactive: 0.044 | inactive: -0.024 | inactive: 0.15 | inactive: 0.011 | inactive: -0.063 | inactive: -0.005 | inactive: -0.019
RREB1 isoform 2 (UniProt Q92766) | inactive: -0.207 | inactive: 0.076 | inactive: -0.149 | inactive: 0.102 | inactive: -0.059 | inactive: -0.135 | inactive: 0.011 | inactive: -0.026 | inactive: -0.054 | inactive: 0.055
RRP1B (UniProt Q14684) | inactive: -0.025 | inactive: 0.046 | inactive: -0.018 | inactive: 0.04 | inactive: 0.027 | inactive: 0.031 | inactive: -0.019 | inactive: 0.054 | inactive: 0.028 | inactive: -0.037
RSPRY1 (UniProt Q96DX4) | inactive: 0.058 | inactive: -0.07 | inactive: -0.029 | inactive: 0.062 | inactive: 0.048 | inactive: -0.034 | inactive: -0.168 | inactive: -0.02 | inactive: -0.03 | inactive: -0.019
RTN3 isoform 5 (UniProt O95197) | inactive: -0.031 | inactive: -0.038 | inactive: -0.115 | inactive: 0.09 | inactive: -0.024 | inactive: -0.046 | inactive: -0.054 | inactive: -0.09 | inactive: -0.035 | inactive: 0.009
RPSA (UniProt P08865) | inactive: -0.022 | inactive: -0.016 | inactive: 0.014 | inactive: -0.012 | inactive: 0.033 | inactive: -0.019 | inactive: 0 | inactive: -0.002 | inactive: 0.011 | inactive: -0.011
RRM1 (UniProt P23921) | inactive: -0.003 | inactive: 0.008 | inactive: -0.026 | inactive: 0.001 | inactive: 0.016 | inactive: -0.018 | inactive: 0.007 | inactive: 0.016 | inactive: -0.002 | inactive: -0.038
RPL36AL (UniProt Q969Q0) | inactive: 0.034 | inactive: 0.038 | inactive: 0.094 | inactive: 0.055 | inactive: 0.04 | active: 0.329 | inactive: 0.058 | inactive: 0.01 | inactive: -0.026 | inactive: -0.009
RPS8 (UniProt P62241) | inactive: 0.004 | inactive: -0.016 | inactive: -0.001 | inactive: -0.022 | inactive: -0.001 | inactive: 0.11 | inactive: 0.033 | inactive: -0.017 | inactive: -0.019 | inactive: 0.002
RPS25 (UniProt P62851) | inactive: 0.016 | inactive: -0.045 | inactive: 0.02 | inactive: -0.021 | inactive: -0.009 | inactive: 0.042 | inactive: 0.059 | inactive: -0.034 | inactive: 0.017 | inactive: 0.023
RPL7L1 (UniProt Q6DKI1) | inactive: -0.002 | inactive: 0.02 | inactive: -0.018 | inactive: 0.036 | inactive: 0.003 | inactive: -0.056 | inactive: -0.004 | inactive: 0.01 | inactive: 0.018 | inactive: 0.002
RPS24 isoform 4 (UniProt P62847) | inactive: 0.001 | inactive: -0.023 | inactive: 0.017 | inactive: -0.017 | inactive: -0.006 | inactive: -0.006 | inactive: 0.008 | inactive: -0.027 | inactive: -0.023 | inactive: -0.022
RPS10 (UniProt P46783) | inactive: 0.012 | inactive: -0.001 | inactive: 0.017 | inactive: 0.018 | inactive: 0.011 | inactive: 0.05 | inactive: 0.005 | inactive: -0.013 | inactive: 0.003 | inactive: -0.009
RPS6KB2 (UniProt Q9UBS0) | inactive: -0.019 | inactive: 0.035 | inactive: -0.046 | inactive: 0.003 | inactive: 0.082 | inactive: -0.08 | inactive: -0.05 | inactive: 0.003 | inactive: -0.032 | inactive: -0.019
RTCA (UniProt O00442) | inactive: 0.026 | inactive: 0.027 | inactive: -0.016 | inactive: -0.012 | inactive: 0 | inactive: -0.011 | inactive: -0.036 | inactive: -0.009 | inactive: -0.012 | inactive: 0.013
RPUSD2 (UniProt Q8IZ73) | inactive: 0.009 | inactive: 0.012 | inactive: -0.003 | inactive: -0.001 | inactive: -0.02 | inactive: -0.009 | inactive: -0.005 | inactive: 0.001 | inactive: -0.003 | inactive: -0.017
RRS1 (UniProt Q15050) | inactive: -0.009 | inactive: 0.013 | inactive: -0.058 | inactive: 0.05 | inactive: -0.039 | inactive: -0.033 | inactive: -0.003 | inactive: 0.016 | inactive: 0.007 | inactive: -0.021
RPP25L (UniProt Q8N5L8) | inactive: 0.038 | inactive: -0.022 | inactive: -0.055 | inactive: -0.04 | inactive: -0.07 | inactive: -0.088 | inactive: 0.018 | inactive: -0.041 | inactive: 0.029 | inactive: -0.003
RWDD1 (UniProt Q9H446) | inactive: -0.062 | inactive: 0.012 | inactive: 0.045 | inactive: 0 | inactive: 0.015 | inactive: 0.157 | inactive: -0.001 | inactive: -0.006 | inactive: 0.003 | inactive: -0.006
RPRD1B (UniProt Q9NQG5) | inactive: -0.016 | inactive: -0.033 | inactive: 0.006 | inactive: -0.071 | inactive: 0.007 | inactive: 0.135 | inactive: 0 | inactive: -0.031 | inactive: 0.006 | inactive: 0.084
RPP21 isoform 4 (UniProt Q9H633) | inactive: 0.158 | inactive: -0.237 | inactive: -0.051 | inactive: 0.038 | inactive: 0.091 | inactive: -0.158 | inactive: 0.079 | inactive: -0.025 | inactive: 0.018 | inactive: 0.032
RRP12 (UniProt Q5JTH9) | inactive: -0.04 | inactive: 0.027 | inactive: -0.009 | inactive: -0.003 | inactive: 0.026 | inactive: -0.032 | inactive: -0.003 | inactive: 0.06 | inactive: 0 | inactive: 0.023
RPP40 (UniProt O75818) | inactive: 0.019 | inactive: -0.015 | inactive: 0.014 | inactive: 0.068 | inactive: 0.071 | inactive: 0.022 | inactive: 0.035 | inactive: -0.014 | inactive: 0.01 | inactive: 0.04
RUNX1 isoform 8 (UniProt Q01196) | inactive: -0.016 | inactive: 0.021 | inactive: -0.01 | inactive: 0.002 | inactive: 0.072 | inactive: -0.022 | inactive: -0.054 | inactive: 0.108 | inactive: 0.011 | inactive: 0.101
S100A13 (UniProt Q99584) | inactive: 0.002 | inactive: 0.007 | inactive: 0.027 | inactive: 0.006 | inactive: 0.021 | inactive: 0.061 | inactive: 0.001 | inactive: -0.023 | inactive: -0.016 | inactive: -0.037

An excerpt of these results, in CSV form:
Target,log2 fold change [1],log2 fold change [2],log2 fold change [3],log2 fold change [4],log2 fold change [5],log2 fold change [6],log2 fold change [7],log2 fold change [8],log2 fold change [9],log2 fold change [10]
RTN3 isoform 5 (UniProt O95197),inactive: -0.031,inactive: -0.038,inactive: -0.115,inactive: 0.09,inactive: -0.024,inactive: -0.046,inactive: -0.054,inactive: -0.09,inactive: -0.035,inactive: 0.009
RTCA (UniProt O00442),inactive: 0.026,inactive: 0.027,inactive: -0.016,inactive: -0.012,inactive: 0,inactive: -0.011,inactive: -0.036,inactive: -0.009,inactive: -0.012,inactive: 0.013
